Some of the results follow.
Columns and labels:
Test in all cases: log2 fold change, soluble protein after heating vs DMSO (PISA); higher = thermal stabilisation; K562 lysate, 10 uM; active = over 0.2 and 3.5 SD of the protein, either way, in both replicates (recomputed)
[1] = compound: CN1CC[C@H](c2c(O)cc(O)c3c(=O)cc(-c4ccccc4Cl)oc23)[C@H](O)C1 [alvocidib]
Method in brief: (§1)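 K562 pellets were dounce-homogenised in PBS pH 7.4 containing 1 mM MgCl2, and the crude extract, at 1 mg/mL protein, was exposed to 10 μM compound for 30 min. Aliquots were heated for 3 min across 48°C-58°C, pooled, brought to 0.5% NP-40 at 4°C and spun at 21,000xg for 90 min, with the supernatant taken as soluble protein. TMTpro 16plex LC-MS/MS with equalised channel sums quantified that protein. Values are log-two fold changes in thermal stability relative to solvent controls, taken from duplicates.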

Protein sequences, listed by entry. Tags and fused reporters are not part of them. Lines headed by an entry give the natural chain unless they say otherwise; changes in a name come on top.
UniProt Q16384, whole entry, looked up: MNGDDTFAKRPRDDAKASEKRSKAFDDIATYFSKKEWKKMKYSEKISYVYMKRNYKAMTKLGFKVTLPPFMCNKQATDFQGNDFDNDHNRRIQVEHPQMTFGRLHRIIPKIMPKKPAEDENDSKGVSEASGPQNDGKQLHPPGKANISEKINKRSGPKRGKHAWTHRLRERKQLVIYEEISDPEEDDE
UniProt Q8WVM7: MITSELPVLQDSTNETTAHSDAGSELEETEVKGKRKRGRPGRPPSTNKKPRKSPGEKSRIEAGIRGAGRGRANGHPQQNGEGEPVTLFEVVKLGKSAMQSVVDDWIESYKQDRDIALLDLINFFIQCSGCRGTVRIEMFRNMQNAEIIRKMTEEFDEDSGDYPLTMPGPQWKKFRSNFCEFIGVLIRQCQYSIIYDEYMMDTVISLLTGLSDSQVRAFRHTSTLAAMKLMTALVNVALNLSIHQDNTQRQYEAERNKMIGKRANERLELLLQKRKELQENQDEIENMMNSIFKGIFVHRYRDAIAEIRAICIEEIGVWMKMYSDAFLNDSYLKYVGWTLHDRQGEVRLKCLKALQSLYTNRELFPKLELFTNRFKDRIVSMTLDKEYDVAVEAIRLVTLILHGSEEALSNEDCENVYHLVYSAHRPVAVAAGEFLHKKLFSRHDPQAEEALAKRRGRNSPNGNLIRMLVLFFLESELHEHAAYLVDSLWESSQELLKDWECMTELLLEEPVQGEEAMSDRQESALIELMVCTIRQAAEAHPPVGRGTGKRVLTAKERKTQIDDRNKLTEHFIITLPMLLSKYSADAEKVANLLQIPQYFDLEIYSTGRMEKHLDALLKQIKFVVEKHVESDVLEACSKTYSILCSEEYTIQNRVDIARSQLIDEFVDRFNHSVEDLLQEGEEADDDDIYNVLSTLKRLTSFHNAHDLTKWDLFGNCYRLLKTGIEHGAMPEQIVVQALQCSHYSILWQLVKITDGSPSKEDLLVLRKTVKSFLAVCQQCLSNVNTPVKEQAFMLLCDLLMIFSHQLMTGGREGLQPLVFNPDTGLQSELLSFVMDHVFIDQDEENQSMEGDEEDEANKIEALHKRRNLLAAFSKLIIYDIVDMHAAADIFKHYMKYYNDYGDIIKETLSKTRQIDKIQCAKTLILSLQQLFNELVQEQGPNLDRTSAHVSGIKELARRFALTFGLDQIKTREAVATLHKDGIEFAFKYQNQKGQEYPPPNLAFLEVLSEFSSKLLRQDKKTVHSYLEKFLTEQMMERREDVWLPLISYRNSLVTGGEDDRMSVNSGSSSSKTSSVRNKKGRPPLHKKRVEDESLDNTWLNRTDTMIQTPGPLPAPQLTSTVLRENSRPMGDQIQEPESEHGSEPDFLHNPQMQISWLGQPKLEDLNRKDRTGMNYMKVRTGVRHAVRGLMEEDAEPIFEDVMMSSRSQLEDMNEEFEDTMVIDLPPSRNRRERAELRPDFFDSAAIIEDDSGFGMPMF
UniProt Q96JI7: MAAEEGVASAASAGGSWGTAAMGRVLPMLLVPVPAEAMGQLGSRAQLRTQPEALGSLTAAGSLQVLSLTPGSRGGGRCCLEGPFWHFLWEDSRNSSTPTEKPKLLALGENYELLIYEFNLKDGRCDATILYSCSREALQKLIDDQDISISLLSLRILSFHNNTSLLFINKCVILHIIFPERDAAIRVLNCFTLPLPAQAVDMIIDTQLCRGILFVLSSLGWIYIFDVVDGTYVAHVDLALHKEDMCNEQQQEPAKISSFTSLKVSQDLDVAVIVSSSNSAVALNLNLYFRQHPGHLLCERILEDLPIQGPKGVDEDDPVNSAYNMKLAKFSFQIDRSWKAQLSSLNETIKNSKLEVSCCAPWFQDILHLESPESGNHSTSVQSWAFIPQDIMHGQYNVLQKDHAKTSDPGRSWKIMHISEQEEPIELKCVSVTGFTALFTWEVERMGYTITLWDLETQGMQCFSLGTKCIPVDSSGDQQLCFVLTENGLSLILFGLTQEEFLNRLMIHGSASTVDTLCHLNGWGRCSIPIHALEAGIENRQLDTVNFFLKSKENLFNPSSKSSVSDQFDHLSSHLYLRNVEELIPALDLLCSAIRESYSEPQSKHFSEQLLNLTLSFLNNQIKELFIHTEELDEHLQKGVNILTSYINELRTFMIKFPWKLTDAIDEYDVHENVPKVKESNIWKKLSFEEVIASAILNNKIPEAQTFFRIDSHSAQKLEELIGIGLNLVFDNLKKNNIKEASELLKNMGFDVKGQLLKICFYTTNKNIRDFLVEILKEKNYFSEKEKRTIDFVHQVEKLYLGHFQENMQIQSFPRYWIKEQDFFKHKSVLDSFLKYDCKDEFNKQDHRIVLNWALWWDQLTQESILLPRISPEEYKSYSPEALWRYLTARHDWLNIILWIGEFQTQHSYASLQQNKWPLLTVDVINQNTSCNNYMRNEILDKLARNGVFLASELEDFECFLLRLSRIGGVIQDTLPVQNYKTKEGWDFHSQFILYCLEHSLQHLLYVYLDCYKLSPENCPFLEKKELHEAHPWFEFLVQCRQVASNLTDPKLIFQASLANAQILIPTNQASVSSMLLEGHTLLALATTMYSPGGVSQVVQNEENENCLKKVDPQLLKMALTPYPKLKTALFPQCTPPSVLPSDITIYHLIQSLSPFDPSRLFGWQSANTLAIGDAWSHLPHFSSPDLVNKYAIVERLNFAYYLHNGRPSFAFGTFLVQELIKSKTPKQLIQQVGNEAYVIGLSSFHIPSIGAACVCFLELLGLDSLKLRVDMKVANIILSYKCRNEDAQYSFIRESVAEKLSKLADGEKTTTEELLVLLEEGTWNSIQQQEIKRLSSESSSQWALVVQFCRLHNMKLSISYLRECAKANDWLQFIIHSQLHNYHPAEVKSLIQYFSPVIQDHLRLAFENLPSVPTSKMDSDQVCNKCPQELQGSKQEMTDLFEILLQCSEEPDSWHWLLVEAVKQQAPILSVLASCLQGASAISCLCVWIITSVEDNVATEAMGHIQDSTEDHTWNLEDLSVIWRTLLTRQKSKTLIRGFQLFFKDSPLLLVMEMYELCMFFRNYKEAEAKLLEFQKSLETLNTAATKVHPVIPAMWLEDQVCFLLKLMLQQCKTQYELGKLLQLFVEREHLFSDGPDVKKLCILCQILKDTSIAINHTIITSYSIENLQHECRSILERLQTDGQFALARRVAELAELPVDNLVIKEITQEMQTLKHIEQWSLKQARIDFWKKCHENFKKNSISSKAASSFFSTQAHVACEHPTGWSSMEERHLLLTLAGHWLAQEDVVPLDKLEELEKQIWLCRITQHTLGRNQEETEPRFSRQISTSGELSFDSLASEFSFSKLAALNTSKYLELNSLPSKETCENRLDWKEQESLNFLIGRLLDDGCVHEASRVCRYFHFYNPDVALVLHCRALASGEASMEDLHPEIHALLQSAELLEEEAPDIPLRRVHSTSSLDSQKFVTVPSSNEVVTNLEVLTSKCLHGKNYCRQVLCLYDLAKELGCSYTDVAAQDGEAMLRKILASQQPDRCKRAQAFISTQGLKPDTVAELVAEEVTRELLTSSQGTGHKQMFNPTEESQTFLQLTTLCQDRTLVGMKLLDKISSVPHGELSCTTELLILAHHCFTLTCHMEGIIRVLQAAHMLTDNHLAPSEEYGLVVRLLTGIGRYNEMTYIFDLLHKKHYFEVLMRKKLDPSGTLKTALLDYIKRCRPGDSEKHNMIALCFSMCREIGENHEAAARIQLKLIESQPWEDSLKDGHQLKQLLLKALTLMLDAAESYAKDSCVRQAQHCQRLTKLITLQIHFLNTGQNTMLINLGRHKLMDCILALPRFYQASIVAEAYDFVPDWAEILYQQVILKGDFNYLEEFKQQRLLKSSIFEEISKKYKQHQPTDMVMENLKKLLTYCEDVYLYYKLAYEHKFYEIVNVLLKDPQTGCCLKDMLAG
UniProt Q16842: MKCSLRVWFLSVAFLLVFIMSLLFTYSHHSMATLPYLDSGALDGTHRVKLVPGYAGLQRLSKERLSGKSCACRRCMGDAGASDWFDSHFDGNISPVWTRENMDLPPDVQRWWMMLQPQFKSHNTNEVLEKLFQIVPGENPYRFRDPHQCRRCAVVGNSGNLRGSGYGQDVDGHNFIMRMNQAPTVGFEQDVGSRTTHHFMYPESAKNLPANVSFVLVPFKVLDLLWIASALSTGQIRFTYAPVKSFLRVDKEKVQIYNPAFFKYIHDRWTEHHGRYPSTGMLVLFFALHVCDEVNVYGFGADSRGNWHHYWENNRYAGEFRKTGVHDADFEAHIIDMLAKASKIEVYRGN
UniProt P36956: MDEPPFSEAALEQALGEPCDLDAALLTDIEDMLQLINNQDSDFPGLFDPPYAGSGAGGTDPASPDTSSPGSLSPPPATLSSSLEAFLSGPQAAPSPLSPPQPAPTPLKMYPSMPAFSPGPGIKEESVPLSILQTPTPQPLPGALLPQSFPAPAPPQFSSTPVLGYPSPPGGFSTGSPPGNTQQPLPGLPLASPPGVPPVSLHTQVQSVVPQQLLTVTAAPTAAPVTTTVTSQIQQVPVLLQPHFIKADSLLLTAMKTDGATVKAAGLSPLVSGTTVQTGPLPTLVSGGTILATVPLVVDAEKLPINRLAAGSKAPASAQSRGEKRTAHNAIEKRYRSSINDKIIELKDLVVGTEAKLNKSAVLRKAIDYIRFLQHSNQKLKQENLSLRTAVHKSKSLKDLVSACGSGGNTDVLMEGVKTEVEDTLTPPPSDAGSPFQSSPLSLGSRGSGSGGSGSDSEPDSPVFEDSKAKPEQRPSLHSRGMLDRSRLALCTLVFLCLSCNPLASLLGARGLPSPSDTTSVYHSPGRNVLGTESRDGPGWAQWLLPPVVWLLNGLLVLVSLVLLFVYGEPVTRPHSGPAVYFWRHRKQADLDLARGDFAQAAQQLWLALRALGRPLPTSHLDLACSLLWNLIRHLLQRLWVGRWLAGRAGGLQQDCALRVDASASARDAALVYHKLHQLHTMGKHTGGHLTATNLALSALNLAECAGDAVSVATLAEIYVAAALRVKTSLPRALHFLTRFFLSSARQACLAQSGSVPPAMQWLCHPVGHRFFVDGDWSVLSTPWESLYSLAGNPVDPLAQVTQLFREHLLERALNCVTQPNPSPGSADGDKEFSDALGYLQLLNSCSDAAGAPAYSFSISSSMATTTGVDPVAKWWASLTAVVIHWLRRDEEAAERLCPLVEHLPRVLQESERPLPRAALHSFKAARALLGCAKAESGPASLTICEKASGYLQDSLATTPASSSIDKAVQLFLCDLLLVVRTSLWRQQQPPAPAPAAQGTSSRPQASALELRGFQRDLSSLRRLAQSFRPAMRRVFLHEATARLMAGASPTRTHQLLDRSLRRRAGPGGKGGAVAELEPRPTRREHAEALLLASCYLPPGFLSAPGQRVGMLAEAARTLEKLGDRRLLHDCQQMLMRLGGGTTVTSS
UniProt O95793: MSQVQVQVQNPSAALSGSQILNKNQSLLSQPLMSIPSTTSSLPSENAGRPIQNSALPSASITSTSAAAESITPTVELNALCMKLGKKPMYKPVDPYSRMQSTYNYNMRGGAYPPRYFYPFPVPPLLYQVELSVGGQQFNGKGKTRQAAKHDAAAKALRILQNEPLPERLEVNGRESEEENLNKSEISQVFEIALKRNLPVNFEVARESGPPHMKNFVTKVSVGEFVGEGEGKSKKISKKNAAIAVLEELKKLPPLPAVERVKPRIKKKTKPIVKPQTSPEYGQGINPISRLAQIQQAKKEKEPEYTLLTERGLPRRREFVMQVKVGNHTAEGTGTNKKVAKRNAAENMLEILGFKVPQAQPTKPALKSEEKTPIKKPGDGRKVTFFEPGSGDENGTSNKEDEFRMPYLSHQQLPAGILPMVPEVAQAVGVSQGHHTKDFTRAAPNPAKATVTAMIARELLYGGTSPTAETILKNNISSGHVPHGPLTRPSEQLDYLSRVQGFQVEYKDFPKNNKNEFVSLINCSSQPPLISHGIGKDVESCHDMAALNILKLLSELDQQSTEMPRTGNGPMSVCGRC
UniProt Q658P3: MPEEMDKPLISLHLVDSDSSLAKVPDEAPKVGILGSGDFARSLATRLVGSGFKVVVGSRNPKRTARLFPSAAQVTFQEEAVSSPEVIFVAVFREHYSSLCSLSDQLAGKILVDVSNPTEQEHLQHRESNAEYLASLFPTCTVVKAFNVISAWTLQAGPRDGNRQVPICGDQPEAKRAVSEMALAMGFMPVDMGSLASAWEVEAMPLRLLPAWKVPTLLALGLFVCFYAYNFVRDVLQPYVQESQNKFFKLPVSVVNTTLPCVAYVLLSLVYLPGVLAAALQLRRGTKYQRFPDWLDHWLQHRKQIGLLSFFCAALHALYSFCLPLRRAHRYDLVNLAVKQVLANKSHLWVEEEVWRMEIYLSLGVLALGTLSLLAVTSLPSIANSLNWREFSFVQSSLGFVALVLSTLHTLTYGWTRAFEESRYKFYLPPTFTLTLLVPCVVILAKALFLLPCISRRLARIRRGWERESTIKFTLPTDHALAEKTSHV

[2] = compound: CN1CCc2c(c3ccccc3n2Cc2ccc(C(=O)NO)cc2)C1 [Tubastatin A]
Method in brief: as §1

[3] = compound: CNC(=O)C1=CC=CC=C1NC2=NC(=NC=C2Cl)NC3=C(C=C(C=C3)N4CCOCC4)OC
Method in brief: as §1

[4] = compound: CNC(=O)c1ccc(Nc2ncc(C(F)(F)F)c(NCc3nccnc3N(C)S(C)(=O)=O)n2)cc1 [defactinib]
Method in brief: as §1

[5] = compound: CNc1nc(-c2ccc3c(N)n[nH]c3c2)cc(N2C[C@@H](C(=O)NC3CCCCC3)CC[C@H]2C)n1
Method in brief: as §1

[6] = compound: COC(=O)N[C@@H](C)CNc1nccc(-c2cn(C(C)C)nc2-c2cc(Cl)cc(NS(C)(=O)=O)c2F)n1 [encorafenib]
Method in brief: as §1

[7] = compound: COC(=O)[C@H](CCSC)NC(=O)C1=C(C=C(C=C1)NC[C@H](CS)N)C2=CC=CC=C2
Method in brief: as §1

[8] = compound: COc1cc2nc(-c3cc(F)ccc3O)nc(N[C@@H]3CNC[C@H]3C(C)(C)O)c2cc1OC
Method in brief: as §1

[9] = compound: CS(=O)(=O)CCNCc1ccc(-c2ccc3ncnc(Nc4ccc(OCc5cccc(F)c5)c(Cl)c4)c3c2)o1 [lapatinib]
Method in brief: as §1

[10] = compound: C[C@@H](Oc1cc(-c2cnn(C3CCNCC3)c2)cnc1N)c1c(Cl)ccc(F)c1Cl [crizotinib]
Method in brief: as §1

[11] = compound: C[C@H](C1=CC=C(C=C1)C(=O)NC2=C3C=CNC3=NC=C2)N
Method in brief: as §1

[12] = compound: C[C@H](Nc1ncnc2nc[nH]c12)c1cc2cccc(Cl)c2c(=O)n1-c1ccccc1 [duvelisib]
Method in brief: as §1

[13] = compound: Cc1cc(Nc2cc(CN3CCOCC3)c3nc(C)c(Cc4ccc(Cl)cc4F)n3n2)n[nH]1 [gandotinib]
Method in brief: as §1

[14] = compound: Cc1cc(Nc2cc(N3CCN(C)CC3)nc(Sc3ccc(NC(=O)C4CC4)cc3)n2)n[nH]1 [tozasertib]
Method in brief: as §1

[15] = compound: Cc1ccc(-n2nc(C(C)(C)C)cc2NC(=O)Nc2ccc(OCCN3CCOCC3)c3ccccc23)cc1 [doramapimod]
Method in brief: as §1

[16] = compound: Cc1cccc(CC(=O)N2CCc3c2ccc(-c2cn(C)c4ncnc(N)c24)c3F)n1
Method in brief: as §1

[17] = compound: COc1cc(Nc2ncc3c(n2)-c2ccc(Cl)cc2C(c2c(F)cccc2OC)=NC3)ccc1C(=O)O [alisertib]
Method in brief: as §1

[18] = compound: COc1cc2ncnc(Nc3ccc(F)c(Cl)c3)c2cc1OCCCN1CCOCC1 [gefitinib]
Method in brief: as §1

[19] = compound: CS(=O)(=O)N1CCN(Cc2cc3nc(-c4cccc5[nH]ncc45)nc(N4CCOCC4)c3s2)CC1 [pictilisib]
Method in brief: as §1

[20] = compound: Cc1ccc(NC(=O)c2ccc(CN3CC[C@H](N(C)C)C3)c(C(F)(F)F)c2)cc1Nc1nccc(-c2cncnc2)n1 [bafetinib]
Method in brief: as §1

Measured: log2 fold change

SSH2 (UniProt Q76I76)
inactive: [1] -0.081 | [2] 0.034 | [3] 0.029 | [4] -0.002 | [5] 0.061 | [6] 0.266 | [7] 0.307 | [8] 0.025 | [9] -0.132 | [10] 0.01 | [11] -0.029 | [12] -0.053 | [13] 0.131 | [14] 0.059 | [15] -0.067 | [16] 0.184

SSX1 (UniProt Q16384)
inactive: [1] -0.065 | [2] -0.09 | [3] 0.278 | [4] 0.061 | [5] -0.112 | [6] 0.047 | [7] -0.016 | [10] -0.056 | [11] 0.049 | [12] 0.061 | [13] 0.282 | [14] 0.049 | [15] 0.118 | [16] 0.266

STAG1 (UniProt Q8WVM7)
inactive: [1] -0.118 | [2] 0.037 | [3] 0.017 | [5] 0.03 | [6] 0.039 | [7] 0.025 | [17] -0.026 | [8] -0.035 | [18] 0.085 | [9] -0.079 | [19] 0.205 | [10] -0.011 | [11] 0.018 | [12] -0.019 | [13] -0.052 | [14] -0.03 | [15] -0.098 | [20] 0.115 | [16] 0.229

SPG11 (UniProt Q96JI7)
inactive: [1] 0.161 | [2] -0.129 | [3] -0.058 | [4] -0.015 | [5] -0.003 | [6] 0.049 | [7] 0.088 | [17] -0.041 | [8] 0.07 | [18] -0.024 | [9] -0.163 | [19] -0.021 | [10] -0.102 | [11] -0.049 | [12] 0.048 | [13] 0 | [14] 0.047 | [15] 0.024 | [20] 0.138 | [16] -0.009

STAT2 (UniProt P52630)
inactive: [1] 0.02 | [2] -0.183 | [3] 0.016 | [4] -0.03 | [5] -0.018 | [6] 0.023 | [7] -0.014 | [17] 0.006 | [8] 0.004 | [18] -0.023 | [9] 0.005 | [19] -0.024 | [10] -0.146 | [11] 0.008 | [12] 0.004 | [13] -0.082 | [14] 0.047 | [15] 0.037 | [20] -0.078 | [16] 0.093

SPEN (UniProt Q96T58)
inactive: [1] -0.057 | [2] -0.028 | [3] 0.045 | [4] -0.017 | [5] -0.025 | [6] 0.067 | [7] -0.025 | [17] 0.086 | [8] -0.033 | [18] -0.015 | [9] -0.013 | [19] -0.091 | [10] -0.068 | [11] -0.217 | [12] 0.007 | [13] 0.037 | [14] 0.003 | [15] 0.136 | [20] -0.097 | [16] 0.046

STC2 (UniProt O76061)
inactive: [1] 0.081 | [2] -0.014 | [3] -0.094 | [4] 0.177 | [5] -0.056 | [6] -0.142 | [7] 0.055 | [17] 0.069 | [8] 0.106 | [18] 0.044 | [9] 0.063 | [10] 0.066 | [11] -0.279 | [12] -0.051 | [13] 0.069 | [14] -0.124 | [15] 0.127 | [16] -0.012

SS18 (UniProt Q15532)
inactive: [1] 0.076 | [2] 0.013 | [3] 0.014 | [4] 0.198 | [5] 0.086 | [6] 0.04 | [7] -0.215 | [17] 0.082 | [8] -0.022 | [18] -0.243 | [9] 0.039 | [10] 0.074 | [11] 0.136 | [12] 0.034 | [13] -0.192 | [14] 0.119 | [15] -0.016 | [16] -0.178

SPPL2A (UniProt Q8TCT8)
inactive: [1] 0.013 | [2] 0.107 | [3] 0.103 | [4] -0.054 | [6] 0.124 | [7] -0.063 | [8] 0.099 | [9] -0.002 | [19] -0.059 | [10] -0.127 | [11] -0.302 | [13] -0.093 | [14] 0.082 | [15] -0.032 | [20] -0.127 | [16] 0.1

4 successive records from above, quoted:
STAT2 (UniProt P52630)
inactive: [1] 0.02 | [2] -0.183 | [3] 0.016 | [4] -0.03 | [5] -0.018 | [6] 0.023 | [7] -0.014 | [17] 0.006 | [8] 0.004 | [18] -0.023 | [9] 0.005 | [19] -0.024 | [10] -0.146 | [11] 0.008 | [12] 0.004 | [13] -0.082 | [14] 0.047 | [15] 0.037 | [20] -0.078 | [16] 0.093

SPEN (UniProt Q96T58)
inactive: [1] -0.057 | [2] -0.028 | [3] 0.045 | [4] -0.017 | [5] -0.025 | [6] 0.067 | [7] -0.025 | [17] 0.086 | [8] -0.033 | [18] -0.015 | [9] -0.013 | [19] -0.091 | [10] -0.068 | [11] -0.217 | [12] 0.007 | [13] 0.037 | [14] 0.003 | [15] 0.136 | [20] -0.097 | [16] 0.046

STC2 (UniProt O76061)
inactive: [1] 0.081 | [2] -0.014 | [3] -0.094 | [4] 0.177 | [5] -0.056 | [6] -0.142 | [7] 0.055 | [17] 0.069 | [8] 0.106 | [18] 0.044 | [9] 0.063 | [10] 0.066 | [11] -0.279 | [12] -0.051 | [13] 0.069 | [14] -0.124 | [15] 0.127 | [16] -0.012

SS18 (UniProt Q15532)
inactive: [1] 0.076 | [2] 0.013 | [3] 0.014 | [4] 0.198 | [5] 0.086 | [6] 0.04 | [7] -0.215 | [17] 0.082 | [8] -0.022 | [18] -0.243 | [9] 0.039 | [10] 0.074 | [11] 0.136 | [12] 0.034 | [13] -0.192 | [14] 0.119 | [15] -0.016 | [16] -0.178

Later entries.

ST3GAL2 (UniProt Q16842)
inactive: [1] -0.086 | [2] 0.015 | [3] -0.063 | [4] 0.081 | [5] 0.063 | [6] 0.049 | [7] -0.08 | [8] -0.018 | [9] 0.017 | [19] 0 | [10] -0.054 | [11] -0.076 | [12] -0.056 | [13] 0.127 | [14] 0.044 | [15] 0.026 | [20] 0.096 | [16] 0.191

SRCIN1 (UniProt Q9C0H9)
inactive: [1] -0.104 | [2] 0.078 | [3] 0 | [6] 0.003 | [7] 0.083 | [17] -0.146 | [8] 0.049 | [18] -0.062 | [9] 0.118 | [11] -0.095 | [13] -0.011 | [14] 0.015 | [16] 0.077

SQOR (UniProt Q9Y6N5)
inactive: [2] 0.065 | [3] -0.103 | [5] 0.03 | [6] 0.023 | [7] 0.08 | [8] -0.11 | [9] 0.11 | [10] -0.081 | [12] -0.047 | [14] 0.046 | [15] 0.046

SREBF1 isoform 4 (UniProt P36956)
inactive: [2] 0.027 | [3] -0.097 | [5] 0.035 | [8] 0.195 | [9] -0.159 | [10] -0.031 | [12] -0.037 | [15] -0.043

STAU1 isoform 3 (UniProt O95793)
inactive: [1] -0.06 | [3] -0.044 | [17] -0.068 | [18] 0.03 | [19] 0.048 | [10] 0.049 | [11] -0.298 | [13] 0.112 | [15] 0.269 | [20] -0.086 | [16] 0.078

STEAP3 isoform 2 (UniProt Q658P3)
inactive: [1] -0.027 | [2] -0.061 | [4] 0.045 | [5] -0.082 | [6] -0.016 | [7] 0.018 | [17] -0.047 | [8] -0.003 | [18] 0.051 | [9] -0.01 | [19] 0 | [10] 0.023 | [11] -0.101 | [12] -0.072 | [13] 0.113 | [14] -0.069 | [15] 0.061 | [20] -0.014 | [16] 0.104

From the supplement of paper PMC10849652
